Test results as given in PubChem BioAssay AID1347076 (National Center for Advancing Translational Sciences (NCATS), 2019).
About 13,000 (3.2%) of roughly 400,000 compounds were called active. The shares of active, inactive and inconclusive entries below differ from those in the screen. Calls follow the shape of the dose curve; as a rule, active = well fitted cell-killing curve with a large enough effect; inconclusive = small, poorly fitted or top-dose-only effect, or effect the other way; inactive = flat fitted curve, though single readings scatter. Where the call is inconclusive, the potency comes from a doubtful curve fit.

Assay: qHTS assay for MDR1-selective chemotherapeutics: Primary screen using the drug-selected MDR subline cells KB-V1; also: nearly all actives have a fitted effect of over 60% in size
Conditions: KB-V1 MDR cells viability, CellTiter-Glo, 72 h; activity change, negative = cytotoxicity: at 46.1 µM (top of the series)
How it was run: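 Cells of the MDR subline KB-V1 are plated, dosed with compound at multiple concentrations, and incubated 72 h at 37 degrees C; CellTiter-Glo is then added and luminescence read after 10 min.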
% is scaled to controls: 0 for no effect and ±100 for the full control effect; potency is read from the fitted curve at half-maximal effect.

Q: Which Potency does the source give for Cc1ccc(NC(=O)CCNC(=O)c2ccc(Br)cc2)cc1S(=O)(=O)N1CCCCCC1 here?
A: active: 20.6 µM

Q: With COC(=O)C(C(=O)OC)c1ncccc1NS(=O)(=O)c1ccc(C)cc1 as the molecule, how does the “activity change, negative = cytotoxicity” value read?
A: inactive: -0.36%

Q: For COc1ccc(OCCOC(=O)CNS(=O)(=O)c2ccc(SC)c([N+](=O)[O-])c2)cc1, which Potency is on record?
A: inconclusive: 20.6 µM [rising, partial curve, poor fit]

Q: With COc1ccccc1CCNC(=O)CSc1ccc(-c2ccco2)nn1 as the molecule, how does the Potency read?
A: inconclusive: 16.4 µM [cytotoxic, partial curve, poor fit]

Q: For Cc1oc2cc3oc(=O)c(CCC(=O)N[C@H](C(=O)O)C(C)C)c(C)c3cc2c1C, which “activity change, negative = cytotoxicity” value is on record?
A: inactive: -11.9%

Q: Which “activity change, negative = cytotoxicity” value does the source give for CCc1c(C(=O)Nc2cc(C)ccc2OC)[nH]c(C)c1C(C)=O here?
A: inactive: 0%

Q: For O=[N+]([O-])c1cccc(/C=N/n2cnnc2)c1O, which Potency is on record?
A: inconclusive: 3.66 µM [rising, partial curve, poor fit]

Q: With CS(=O)(=O)c1ccc(Cl)c(NC(=O)COC(=O)CNC(=O)c2sc3ccccc3c2Cl)c1 as the molecule, how does the “activity change, negative = cytotoxicity” value read?
A: inactive: 22.6%

Q: Which activity change, negative = cytotoxicity does the source give for Cc1cccc2c1CC(C)(C)N/C2=C\C(N)=O here?
A: inconclusive: -9.71%

Q: For Cc1ccccc1CN1CCc2cc([N+](=O)[O-])ccc21, which Potency is on record?
A: inconclusive: 14.6 µM [cytotoxic, single point]

Q: For CS(=O)(=O)Nc1ccc(S(=O)(=O)N2CCCC2)cc1, which “activity change, negative = cytotoxicity” value is on record?
A: inactive: -4.82%

Q: Which “activity change, negative = cytotoxicity” value does the source give for CCCC(=O)Nc1nnc(SCc2cc(=O)c3cc(C)ccc3[nH]2)s1 here?
A: inactive: 0%

Q: For O=C(O)CCC(=O)Nc1ccc(C(=O)OCC(=O)c2ccc(Cl)cc2Cl)cc1, which “activity change, negative = cytotoxicity” value is on record?
A: inactive: 0%

Q: With Cc1ccc(-n2c(C)cc(C(=O)COc3cccnc3[N+](=O)[O-])c2C)cc1 as the molecule, how does the “activity change, negative = cytotoxicity” value read?
A: inactive: -22.5%

Q: With CCCCn1c(SCC(=O)c2ccc(OC)c(OC)c2)nc2cc(S(N)(=O)=O)ccc21 as the molecule, how does the Potency read?
A: inconclusive: 23.1 µM [cytotoxic, single point]

Q: With Cc1ccc(C)c(N2CCN(C(=O)c3cc(S(=O)(=O)N4CCCCC4)cn3C)CC2)c1 as the molecule, how does the Potency read?
A: inconclusive: 23.1 µM [rising, single point]

Q: For Cc1ccc(S(=O)(=O)N2CCC(C(=O)C3C(=O)CCCC3=O)CC2)cc1, which Potency is on record?
A: inconclusive: 8.2 µM [cytotoxic, partial curve]

Q: Which “activity change, negative = cytotoxicity” value does the source give for c1ccc(CN2CCC(Nc3ncnc4sccc34)CC2)cc1 here?
A: inactive: -9.97%

Q: With C#CCSc1nc(=O)c2cccnc2n1-c1ccc(C)cc1 as the molecule, how does the “activity change, negative = cytotoxicity” value read?
A: inactive: 0%

Q: For O=C(Nc1ccc(N2CCN(C(=O)c3cccs3)CC2)c(Cl)c1)c1ccco1, which Potency is on record?
A: active: 3.66 µM

Q: With CN(Cc1ccccc1)C(=O)c1ccc(NC(=O)Cc2ccc(NC(=O)C3CCN(C(=O)C4CCC4)CC3)cc2)cc1 as the molecule, how does the “activity change, negative = cytotoxicity” value read?
A: inactive: -0.182%

Q: Which Potency does the source give for CCCNC(=O)c1ccccc1NC(=O)COc1cccc2c1OC(C)(C)C2 here?
A: inconclusive: 18.4 µM [cytotoxic, partial curve]

Q: For CCN(CC)CCNS(=O)(=O)c1ccc(/C=C/C(=O)O)cc1, which Potency is on record?
A: inconclusive: 23.1 µM [rising, single point]

Q: With O=C(CCNS(=O)(=O)c1ccc(Br)cc1)N1CCCCCCC1 as the molecule, how does the Potency read?
A: inconclusive: 14.6 µM [cytotoxic, partial curve]

Q: With Cc1ccc(S(=O)(=O)c2nc(-c3ccccc3)oc2N2CCCCCC2)cc1 as the molecule, how does the “activity change, negative = cytotoxicity” value read?
A: inactive: -21.2%

Q: For COCCN(Cc1nc(C2(c3ccc(C)cc3)CCCC2)no1)C(C)C, which Potency is on record?
A: inconclusive: 8.2 µM [cytotoxic, partial curve]

Q: With c1ccc2c(OCCCN3CCCCCC3)cccc2c1 as the molecule, how does the “activity change, negative = cytotoxicity” value read?
A: inactive: 2.25%

Q: With Cc1c2cnccc2c(C)c2c1oc1ccccc12 as the molecule, how does the Potency read?
A: active: 11.6 µM

Q: With COc1ccc(CC(=O)OCC(=O)Nc2ccc(Cl)cc2C)cc1 as the molecule, how does the “activity change, negative = cytotoxicity” value read?
A: inactive: 1.83%

Q: With COc1ccc(/C=C/C(=O)OCn2c(SC)nnc(C)c2=O)cc1OC as the molecule, how does the Potency read?
A: inconclusive: 2.59 µM [rising, full curve]

Q: With Cc1ccc(C(=O)NNC(=O)c2cc3ccccc3cc2O)cc1 as the molecule, how does the Potency read?
A: inconclusive: 32.6 µM [cytotoxic, partial curve, poor fit]

Q: Which Potency does the source give for O=C(NCCN1CCCCC1)Nc1ccc(F)c(Cl)c1 here?
A: inconclusive: 16.4 µM [cytotoxic, partial curve, poor fit]

Q: With C=CCOc1ccc(Cl)cc1C(=O)O as the molecule, how does the Potency read?
A: inconclusive: 29.1 µM [rising, single point]

Q: For Cc1ccc(C)c(NC(=O)COC(=O)CC2c3ccccc3CCN2S(=O)(=O)c2ccc(F)cc2)c1 (centres undefined), which Potency is on record?
A: active: 20.6 µM

Q: Which “activity change, negative = cytotoxicity” value does the source give for S=c1[nH]nc(COc2cccc3ccccc23)n1Cc1ccccc1 here?
A: inactive: 0.204%

Q: Which Potency does the source give for NS(=O)(=O)c1ccc(CCNC(=O)c2coc3ccccc3c2=O)cc1 here?
A: inconclusive: 23.1 µM [rising, partial curve, poor fit]

Q: Which Potency does the source give for Cc1cc(N)n2nc(C)c(-c3ccc(Cl)cc3)c2n1 here?
A: inconclusive: 29.1 µM [cytotoxic, single point]

Q: For O=C(CCc1nc(-c2ccc(Cl)cc2)no1)NCc1ccccc1CN1CCOCC1, which Potency is on record?
A: inconclusive: 32.6 µM [cytotoxic, single point]

Q: Which “activity change, negative = cytotoxicity” value does the source give for O=C(COC(=O)c1ccccc1Nc1ccccc1)c1ccccc1 here?
A: inactive: 1.66%

Q: With COc1ccc(N2CCC(CNC(=O)Nc3ccc(Cl)cc3)C2)cc1 (centres undefined) as the molecule, how does the Potency read?
A: inconclusive: 18.4 µM [cytotoxic, single point]

Q: For CC(=O)C1C(c2ccc(O)cc2)NC(=O)NC1(O)C(F)(F)F (centres undefined), which Potency is on record?
A: inconclusive: 29.1 µM [rising, single point]

Q: Which “activity change, negative = cytotoxicity” value does the source give for CCc1nc2sc3c(c2c(=O)n1N)CC(C)(C)OC3 here?
A: inactive: -15.9%

Q: For CCCCn1c(Cl)nc2c1c(=O)n(C)c(=O)n2C, which Potency is on record?
A: inconclusive: 18.4 µM [cytotoxic, single point]

Q: For CN(C)c1ccc(C(c2ccc(N(C)C)cc2)C(O)c2ccccc2)cc1 (centres undefined), which Potency is on record?
A: active: 16.4 µM

Q: With CC1CC(C)CN(CC(=O)NNC(=O)COc2ccc(Cl)cc2)C1 (centres undefined) as the molecule, how does the Potency read?
A: inconclusive: 29.1 µM [cytotoxic, single point]

Q: With Cc1nc(CN2CCN(C(=O)c3ccc(C(C)(C)C)cc3)CC2)cs1 as the molecule, how does the “activity change, negative = cytotoxicity” value read?
A: inactive: 7.4%

Q: Which Potency does the source give for Cc1cccc(NC(=O)c2ccc(OC3CSC3)cc2)c1 here?
A: inconclusive: 16.4 µM [cytotoxic, single point]

Q: Which Potency does the source give for O=C(Nc1cccn(Cc2c(Cl)cccc2Cl)c1=O)c1ccccc1Cl here?
A: active: 5.8 µM

Q: For CCNC(=O)/C(=C/c1cccc([N+](=O)[O-])c1)NC(=O)c1ccc(C)cc1, which “activity change, negative = cytotoxicity” value is on record?
A: inactive: 0%

Q: For CCOC(=O)c1nnn(C(CC)C(=O)Nc2c(C)cccc2C)c1C(=O)OCC (centres undefined), which Potency is on record?
A: inconclusive: 0.0259 µM [rising, full curve, poor fit]

Q: With CCCCN1C(=O)c2ccccc2C1C(=O)NC1CCCC1 (centres undefined) as the molecule, how does the Potency read?
A: inconclusive: 35.5 µM [cytotoxic, single point]

Q: With O=C(Nc1ccc2c(c1)OCCO2)C(C1CC1)N1CCN(c2ccc(F)cc2)CC1 (centres undefined) as the molecule, how does the “activity change, negative = cytotoxicity” value read?
A: inactive: 0%

Q: For CCCC[C@@H]1CNCCN1CCc1cc(C(F)(F)F)cc(C(F)(F)F)c1, which Potency is on record?
A: inconclusive: 20.6 µM [cytotoxic, single point]

Q: With CCOc1ccc(N(CC(=O)Nc2ccc(C)c(C)c2)S(=O)(=O)c2c(C)noc2C)cc1 as the molecule, how does the Potency read?
A: inconclusive: 18.4 µM [cytotoxic, partial curve, poor fit]

Q: For O=C1NC(c2ccc(Br)cc2)Nc2ccccc21 (centres undefined), which Potency is on record?
A: active: 6.51 µM

Q: Which Potency does the source give for CCc1ccccc1NC(=O)c1cc(-c2cccc(O)c2)on1 here?
A: inconclusive: 29.1 µM [rising, single point]

Q: With Cc1cc(C)nc(NC(=NCCc2c[nH]c3ccccc23)NC(=O)Nc2ccccc2)n1 as the molecule, how does the “activity change, negative = cytotoxicity” value read?
A: inactive: 0%

Q: Which Potency does the source give for COc1ccc(OCC(Cn2cnc3ccccc32)OC(C)=O)cc1 (centres undefined) here?
A: inconclusive: 20.6 µM [cytotoxic, single point]

Q: With N=c1c(C(=O)NC2CCCCC2)cc2c(=O)n3ccccc3nc2n1Cc1ccc(F)cc1 as the molecule, how does the “activity change, negative = cytotoxicity” value read?
A: inactive: 12.1%

Q: Which Potency does the source give for CC(C)CNC(=O)C1CCN(c2ccc(S(=O)(=O)N3CCOCC3)cc2)CC1 here?
A: inconclusive: 16.4 µM [cytotoxic, partial curve, poor fit]

Q: For Cc1ccc2nc(NCCCO)nc(-c3ccccc3)c2c1, which Potency is on record?
A: inconclusive: 18.4 µM [cytotoxic, single point]

Q: Which “activity change, negative = cytotoxicity” value does the source give for O=C1C2C3C=CC(CC3)C2C(=O)N1c1cccc(Br)c1 (centres undefined) here?
A: inactive: 3.12%

Q: Which Potency does the source give for CC[n+]1c(/C=C(\C)Nc2ccccc2)sc2ccccc21 here?
A: active: 20.6 µM

Q: For CC(C)(C)OC(=O)N[C@@H](Cc1ccccc1)C(=O)NCC1CCC(C(=O)N[C@@H](CC(=O)O)C(=O)O)CC1 (some centres undefined), which “activity change, negative = cytotoxicity” value is on record?
A: inactive: 11%

Q: With Cc1nc(NCC2CC2)c2nnn(Cc3ccccc3)c2n1 as the molecule, how does the Potency read?
A: inconclusive: 6.51 µM [cytotoxic, partial curve, poor fit]

Q: With O=S(=O)(NCC(c1ccco1)N1CCc2ccccc21)c1ccccc1 (centres undefined) as the molecule, how does the Potency read?
A: inconclusive: 20.6 µM [cytotoxic, single point]

Q: With COc1ccc(Cl)cc1N(CC(=O)N1CCCC1)S(=O)(=O)c1ccc(C)cc1 as the molecule, how does the Potency read?
A: inconclusive: 0.58 µM [cytotoxic, partial curve, poor fit]

Q: Which Potency does the source give for CCC(O)C1CCN(C(=O)c2cc(COc3ccc4ncccc4c3)on2)CC1 (centres undefined) here?
A: inconclusive: 2.59 µM [cytotoxic, full curve]

Q: For CCCN(C(=O)COC(=O)CCC(=O)c1ccccc1)c1c(N)n(Cc2ccccc2)c(=O)[nH]c1=O, which Potency is on record?
A: inconclusive: 18.4 µM [rising, single point]

Q: Which “activity change, negative = cytotoxicity” value does the source give for CCOc1ccc2nc(N3CCCC(C(=O)NCc4ccc(OC)cc4)C3)sc2c1 (centres undefined) here?
A: inactive: -5.61%

Q: Which Potency does the source give for CCN(CC)c1ccc(NC(=O)c2ccc3c(c2)c(C)c(C)n3C)cc1 here?
A: active: 16.4 µM

Q: For Cc1cc(/C=N/NC(=O)c2ccoc2C)cc(C)c1O, which “activity change, negative = cytotoxicity” value is on record?
A: inactive: -12.9%

Q: For COc1ccc(C(O)c2nc(-c3ccc(OC)c(OC)c3)cs2)cc1 (centres undefined), which Potency is on record?
A: inconclusive: 20.6 µM [cytotoxic, single point]

Q: With C[C@@H]1CN([C@@H](C)CO)C(=O)c2cc(Br)cnc2O[C@H]1CN(C)C(=O)C1CC1 as the molecule, how does the Potency read?
A: inconclusive: 0.411 µM [rising, full curve]
